Results on 1 substance are retold here after article PMC8800482.

By UniProt entry, the sequences of proteins in these tests, tags left out. Where a name states a change or a piece, a line headed by the entry shows the natural chain unless it says otherwise.
UniProt O75030: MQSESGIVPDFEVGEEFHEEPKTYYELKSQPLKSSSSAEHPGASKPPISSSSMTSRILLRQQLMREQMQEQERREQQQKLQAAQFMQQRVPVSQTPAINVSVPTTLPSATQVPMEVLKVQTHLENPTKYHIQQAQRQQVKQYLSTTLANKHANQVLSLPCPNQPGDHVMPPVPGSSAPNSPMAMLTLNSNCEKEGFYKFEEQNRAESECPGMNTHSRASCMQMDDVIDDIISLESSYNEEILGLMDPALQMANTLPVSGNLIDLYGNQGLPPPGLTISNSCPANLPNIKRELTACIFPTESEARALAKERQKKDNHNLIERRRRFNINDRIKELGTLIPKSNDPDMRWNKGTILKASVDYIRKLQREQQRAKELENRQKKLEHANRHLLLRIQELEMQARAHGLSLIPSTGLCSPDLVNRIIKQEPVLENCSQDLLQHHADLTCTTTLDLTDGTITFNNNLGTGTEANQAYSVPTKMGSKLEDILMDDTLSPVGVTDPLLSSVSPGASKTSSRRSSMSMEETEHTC

The target in experiment [1] is Microphthalmia-associated transcription factor (MITF), wild type, in HEK293T cells (human) (UniProt O75030). The experiment is described as follows: co-IP; HEK293T cells; autophagic receptors co-introduced with His-CLK4; MITF immunoprecipitated and the receptors probed (Figure 7Ai-iii).
The target in experiment [2] is MITF-Y360F, in HEK293T cells (human) (UniProt O75030). Nature of the experiment: co-IP; exogenous; HEK293T cells with indicated constructs (Figures 4Ai, 7B, 8Cii); extracts in buffer with 1% NP-40, antibody overnight at 4°C, protein G magnetic beads, immunoblot.

These are yes or no findings as the source states them, for the method shown. Binding seen in cells or lysates may run through a third protein. Some binding calls cover weakened binding; strength is not graded here.

For the substance “Sequestosome 1 (SQSTM1), introduced into HEK293T cells (from UniProt Q13501 1-440)”, the binding entry in experiment [1] is recorded as “binds”; in experiment [2], “no binding”.
